# Test results reported in PubChem BioAssay AID1259415 (National Center for Advancing Translational Sciences (NCATS), 2018).
# The whole screen tested about 410,000 compounds, of which about 18,000 (4.4%) were called active. Inconclusive means that the source gave no clear call. Such entries were picked first, then a sample of the others. Cut-off read from the data, not from the text of the source: active = activity change below about -60%; inconclusive = no clear call, values can overlap the other calls; inactive = above about -39%.
# Assay: qHTS Assay for inhibitors of the human cytomegalovirus (HCMV)
# Conditions: HFF cells, HCMV-luciferase reporter, 72 h; at 57.5 µM; stronger effect = lower value
# Summary of the method: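 Steps: HFFs plated, 16 h 37C; compounds added; HCMV-luciferase added to MOI 1 PFU/cell; 72 h 37C; OneGlo reagent, 5 min room temperature; luminescence read, normalized to controls.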
# % is set by controls: 0 for no effect and ±100 for the full control effect.
row,SMILES,"activity change, negative = inhibition"
1,C=CCNC(=S)N/N=C(\C)c1cccc(OC)c1,inconclusive: -50%
2,Cc1ccc(Sc2nc(C)c([N+](=O)[O-])c(C)c2C#N)cc1,active: -69.7%
3,Cc1noc(C)c1C(=O)N(C)C[C@@H]1OCc2ccccc2-c2c(n(C)c3ccccc23)C(=O)N([C@H](C)CO)C[C@H]1C,inactive: 21.3%
4,O=C(Nc1ccn(Cc2ccc(Cl)cc2)n1)c1ccc2c(c1)OCO2,inactive: 20.7%
5,O=C(Nc1nc2ccc(F)cc2s1)c1nc(S(=O)(=O)Cc2ccccc2F)ncc1Cl,active: -109%
6,COC(=O)[C@H](Cc1ccccc1)NS(=O)(=O)N[C@@H](Cc1ccccc1)C(=O)OC,active: -62.2%
7,COc1cccc(S(=O)(=O)NCc2ccc(C(=O)Nc3ccc(Cl)c(Cl)c3)cc2)c1,inconclusive: -47.8%
8,CC1=C(C(=O)Nc2cc(Cl)ccc2C)C(c2sccc2C)n2ncnc2N1 (configuration not stated),inactive: 2.52%
9,O=C(Nc1ccc2c(c1)OCCO2)c1[nH]c(C(F)(F)F)nc1-c1ccccc1,active: -74.4%
10,COc1ccc(C2=C(Nc3ccccc3)c3ccccc3C2=O)cc1,inactive: 34.9%
11,CCOc1ccc(N2CC(C(=O)N3CCCC3)CC2=O)cc1 (configuration not stated),inconclusive: -58.6%
12,Cc1ccc(CNC(=O)CCS(=O)(=O)c2cc3c(cc2Cl)NC(=O)CO3)o1,inactive: 8.81%
13,O=C(Nc1nc2ccccc2[nH]1)C1CCCO1 (configuration not stated),inactive: 68.6%
14,CCN(CC)c1nc(C#N)cc(-c2ccc(OC)cc2)n1,inactive: -20.4%
15,O=C(NCCc1ccccc1)c1ccc(Cn2c(SCc3ccccc3F)nc3cccnc32)cc1,inconclusive: -54.5%
16,CCOC(=O)CN1C(c2ccc(O)cc2)Nc2ccc(Br)cc2C1c1ccccc1 (configuration not stated),inconclusive: -54.7%
17,C[C@]12CC[C@H](O)C[C@H]1CC[C@@H]1C2CC[C@]2(C)[C@@H](C3=CC(=O)OC3)[C@@H](O)C[C@]12O (some centres not stated),active: -99.6%
18,O=C(CCc1nnc(COc2ccccc2)o1)NCc1ccccc1C(F)(F)F,inconclusive: -45.7%
19,C#CCOCCOCCOCCNc1nc(N2CCN(C(=O)CCCCCCCCCCNC(=O)Cn3cc(C[C@@H](C)O)nn3)CC2)nc(N2CCN(C(=O)CCCCCCCCCCNC(=O)Cn3cc(C[C@@H](C)O)nn3)CC2)n1,inconclusive: -56.2%
20,COc1ccc(-c2nc(CN3CCN(c4ncnc5ccccc45)CC3)c(C)o2)c(OC)c1,active: -81.9%
21,COc1ccc(CN(C)C(=O)c2ccc(OCC(=O)Nc3cccc(C(F)(F)F)c3)c(OC)c2)cc1,active: -61.9%
22,O=C1CN(C(=O)CNC(=O)c2cccc(Cl)c2)c2ccccc2N1,inconclusive: -52.4%
23,CCOc1ccc(NC(=O)Nc2nc(SCC)ns2)cc1,active: -60.7%
24,Cc1ccc(NC(=O)C2CCN(c3ncnc4sc(C)c(C)c34)CC2)cc1S(=O)(=O)N(C)C,inconclusive: -57.1%
25,O=C(O)c1cnc(-c2ccccc2)nc1Oc1ccccc1,inactive: -27.6%
26,CCOC(=O)C1(CCc2ccccc2)CCN(Cc2cc(OC)c(OC)cc2OC)CC1,inconclusive: -40.5%

row,SMILES,"activity change, negative = inhibition"
1,C=CCN(c1ccccc1OC)S(=O)(=O)c1cccc(C(=O)NCC(c2ccc(OC)cc2)N2CCCC2)c1 (configuration not stated),inactive: -6.14%
2,COc1ccc(N(CC(=O)NC2CCCCC2)C(=O)c2ccc(C)s2)c(OC)c1,inconclusive: -59.6%
3,CN1CCC(N(C)C(=O)/C=C/c2cn(-c3ccccc3)nc2-c2cccs2)CC1,active: -111%
4,Cc1ccccc1CN1CCC(C(=O)Nc2ccc(Oc3cccnc3)cc2)CC1,inconclusive: -59.1%
5,Cc1ccc2c(C(=O)CN3CCCC(C)C3)c(C)[nH]c2c1 (configuration not stated),inconclusive: -48.3%
6,CSc1sc(C(=O)NCC2CC2)c(-c2cccs2)c1C#N,inconclusive: -48.2%
7,Cc1ccc2occ(-c3cc(-c4ccc(F)cc4)nc4c3COc3ccc(F)cc3-4)c(=O)c2c1,inactive: 11.4%
8,CCCC(C(=O)NCCC(C)C)N(Cc1ccc(F)cc1)C(=O)c1snc(C(N)=O)c1N (configuration not stated),inconclusive: -42.5%
9,Cc1ccc(NC(=O)C2(C)CCN2Cc2cccc3c2OCO3)cc1O (configuration not stated),inconclusive: -40.4%
10,Clc1ccc(CSC(Cn2ccnc2)c2ccc(Cl)cc2Cl)cc1 (configuration not stated),inconclusive: -48.8%
11,Cc1sc2nc(COC(=O)c3ccc(O)cc3)[nH]c(=O)c2c1C,inconclusive: -42%
12,CO[C@@H]1CN(C)C(=O)c2cc(NC(=O)NC3CCCCC3)ccc2OC[C@@H](C)N(CCc2ccccc2)C[C@@H]1C,inactive: 11.6%
13,CCOC(=O)C(C)On1c(SC(C)C(=O)OCC)nc2ccccc2c1=O (configuration not stated),inactive: -16%
14,O=[N+]([O-])/C=C/c1cn(Cc2ccc(F)cc2)c2ccccc12,inconclusive: -45.3%
15,COc1ccc(OC)c(CNC(=O)c2ccc3c(c2)c(C)c(C)n3C)c1,inconclusive: 0%
16,CCS(=O)(=O)c1oc(-c2ccc(F)cc2)nc1S(=O)(=O)c1ccccc1,active: -99%
17,Cc1ccc2c3c1C(=O)C(=O)N3C(C)(C)CC2C (configuration not stated),inconclusive: -41.6%
18,O=C(N/N=C/c1ccco1)c1ccccc1OCc1ccccc1Cl,inconclusive: -52.7%
19,CCc1ccc(-n2c(C)cc(/C=N/NC(=O)OC)c2C)cc1,active: -84.3%
20,CCN(CC)C(=O)/C(=C/c1ccc2c(c1)OCO2)NC(=O)c1ccc(Br)cc1,inconclusive: -59.7%
21,O=C(NCCc1c[nH]c2ccccc12)/C(=C\c1cccs1)NC(=O)c1ccccc1,inconclusive: -54.8%
22,C=CCN=C1NC(c2ccccc2)C(C(=O)OC)=C(C)N1Cc1ccc(C(F)(F)F)cc1 (configuration not stated),inconclusive: -40.2%
23,Cc1ccc(CN2C(=O)CCC2C(=O)NCCCN2CCCCC2C)cc1 (configuration not stated),inconclusive: -49.1%
24,COc1ccc(CNc2cc(C)ccn2)cc1,inconclusive: -54.8%
25,O=C(Cc1coc(-c2ccc(F)cc2)n1)Nc1ccccc1,inconclusive: -45.9%
26,Cc1ccc(C(=O)N[C@H](C(=O)Nc2sccc2C(N)=O)C(C)C)cc1,inconclusive: -51.9%

# Pulled one by one from the list above, two records:
row,SMILES,"activity change, negative = inhibition"
6,COC(=O)[C@H](Cc1ccccc1)NS(=O)(=O)N[C@@H](Cc1ccccc1)C(=O)OC,active: -62.2%
26,CCOC(=O)C1(CCc2ccccc2)CCN(Cc2cc(OC)c(OC)cc2OC)CC1,inconclusive: -40.5%
